Test results: patent US11419868B2, “Low dose product and method for treating diarrhea” (MAREGADE RX, LLC, priority 2016, dated 2022)

System: acetic acid-induced colonic hypersensitivity
Conditions: famotidine 0.6 mg/kg, cetirizine 0.25 mg/kg, each alone, oral twice daily 3.5 days; FIG. 7

O=C(O)COCCN1CCN(C(c2ccccc2)c2ccc(Cl)cc2)CC1 (stereo not shown) [cetirizine]
inhibition of acetic acid-induced colonic hypersensitivity: not either drug alone, induced a significant inhibition
